Laboratory results reported in publication PMC9045721.
No constants are given. Whether binding was seen depends on the method and setting. In cells and extracts the contact can be indirect. Tags and fused reporters may be left off the sequences shown.

Amino acid sequences for entries named in this document (tags omitted). Residues count along the entry.
UniProt Q9HC16, residues 197-384: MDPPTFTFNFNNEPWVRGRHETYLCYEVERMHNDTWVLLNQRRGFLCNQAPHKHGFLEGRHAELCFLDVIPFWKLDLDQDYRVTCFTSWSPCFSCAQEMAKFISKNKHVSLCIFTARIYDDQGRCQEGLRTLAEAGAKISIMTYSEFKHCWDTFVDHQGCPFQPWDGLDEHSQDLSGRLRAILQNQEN

Molecular target: T1, BORF2-3xFLAG (Epstein-Barr virus (EBV)) (UniProt P03190)
T1 sequence: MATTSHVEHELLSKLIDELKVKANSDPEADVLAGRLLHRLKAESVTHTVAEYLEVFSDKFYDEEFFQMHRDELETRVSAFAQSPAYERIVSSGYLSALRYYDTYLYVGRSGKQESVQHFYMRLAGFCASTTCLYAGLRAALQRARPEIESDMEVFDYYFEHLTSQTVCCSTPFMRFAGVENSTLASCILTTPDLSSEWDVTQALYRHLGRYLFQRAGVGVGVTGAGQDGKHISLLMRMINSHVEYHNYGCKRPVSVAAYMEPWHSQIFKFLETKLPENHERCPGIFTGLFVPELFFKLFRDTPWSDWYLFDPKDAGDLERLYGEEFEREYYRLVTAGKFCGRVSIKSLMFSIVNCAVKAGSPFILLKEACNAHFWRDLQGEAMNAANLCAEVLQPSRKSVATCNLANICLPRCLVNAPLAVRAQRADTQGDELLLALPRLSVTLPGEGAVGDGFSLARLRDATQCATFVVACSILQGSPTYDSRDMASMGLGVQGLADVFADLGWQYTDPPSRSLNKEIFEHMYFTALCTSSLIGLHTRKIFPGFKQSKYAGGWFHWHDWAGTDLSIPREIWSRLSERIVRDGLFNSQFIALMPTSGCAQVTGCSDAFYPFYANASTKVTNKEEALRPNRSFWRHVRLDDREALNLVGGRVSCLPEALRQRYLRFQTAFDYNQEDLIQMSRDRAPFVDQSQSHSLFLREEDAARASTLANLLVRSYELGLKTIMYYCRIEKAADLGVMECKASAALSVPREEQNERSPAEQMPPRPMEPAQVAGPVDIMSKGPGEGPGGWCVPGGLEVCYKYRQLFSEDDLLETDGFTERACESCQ
Assay: co-IP; 293T co-transfected with BORF2-3xFLAG and A3-eGFP constructs (100 ng each); lysis in 50 mM tris-HCl (pH 7.5), 150 mM NaCl, 10% glycerol, 0.5% Tergitol, RNase A; anti-FLAG magnetic beads overnight at 4°C; FLAG peptide elution; anti-GFP blot

A3Gctd(197-384)-eGFP (from UniProt Q9HC16-1 197-384) (domain or fragment)
binding: no binding
